In patent US12760268:
At least one result comes from cells or an extract, where the contact may be indirect. For some assays here: No signal at the amounts used counts as a negative. For some assays here: Construct, isoform or probe ends are uncertain for at least one entry.

Amino acid sequences for entries named in this document (tags omitted). Residues count along the entry.
UniProt P62633, 2-177: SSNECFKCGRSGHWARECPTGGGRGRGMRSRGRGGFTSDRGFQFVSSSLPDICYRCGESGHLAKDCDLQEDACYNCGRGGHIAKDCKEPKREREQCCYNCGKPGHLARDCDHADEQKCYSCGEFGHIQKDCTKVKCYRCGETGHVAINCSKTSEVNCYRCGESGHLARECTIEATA

What was measured:
[1] = molecular target: Transferrin receptor 1 (TfR1, CD71), endogenous on cells (Homo sapiens) (UniProt P02786); test: flow cytometry; conditions: protein on the cell surface
[2] = molecular target: Transferrin receptor 1 (TfR1, CD71), Jurkat membrane extract (Homo sapiens) (UniProt P02786); test: pull-down; conditions: protein in an extract, 5'-Cy5 or 5'-biotin, single-stranded DNA
[3] = molecular target: Transferrin receptor 1 (TfR1, CD71), endogenous on cells (Homo sapiens) (UniProt P02786); test: competition with a labelled probe; conditions: not by antibody CY1G4, protein on the cell surface, 5'-Cy5 or 5'-biotin, single-stranded DNA
[4] = molecular target: Cellular nucleic acid-binding protein (CNBP, ZNF9), Jurkat membrane extract (Homo sapiens) (UniProt P62633); test: pull-down; conditions: mass spectrometry of band f, 20% coverage; protein in an extract; label: 5'-FAM (with added 5' T), 5'-Cy5 or 5'-biotin; single-stranded DNA; variant of JBA8.1
[5] = Jurkat and H9 cells, all binding lost, single-stranded DNA, variant of tJBA8.1

GCAGCAGCGTAAAGGGGCTGTTTGTGCGGTGTGGAGTGCGCGTGCTGCTGC [tJBA8.1 GGGGC]
binding result [1, 5]: no binding

ATCCAGAGTGACGCAGCAAATTCCAAACTCGAGTAAGCGTAGAGCCTCTCATCGCCTCAATAATGGACACGGTGGCTTAGT [RANL]
binding result ([1]; Jurkat cells, control, label: 5'-FAM, 5'-Cy5 or 5'-biotin, single-stranded DNA): no binding

GCAGCAGCGTAAAGGGAGTGTTTGTGCGGTGTGGAGTGCGCGTGCTGCTGC [tJBA8.1 GGGAG]
binding result [1, 5]: no binding

ACTCATAGGGTTAGGGGCTGCTGGCCAGATACTCAGATGGTAGGGTTACTATGAGC [XQ-2d]
binding result ([2]; Western blot, HFE co-precipitated with TfR1, label: 5'-FAM): binds
binding result ([3]; competed by holo-transferrin (over 90% on H9), label: 5'-FAM): binds

GCAGCAGCGTAAAGGGGGTGTTTGTGCGGTGTGGAGTGCGCGTGCTGCTGC [tJBA8.1]
binding result [4]: binds
binding result ([2]; mass spectrometry 58-62% coverage, label: 5'-FAM (with added 5' T), variant of JBA8.1): binds
binding result ([3]; competed by holo-transferrin: about 50% on Jurkat, over 90% on H9, label: 5'-FAM (with added 5' T), variant of JBA8.1): binds

GCAGCAGCGTAAAGGAAGTGTTTGTGCGGTGTGGAGTGCGCGCGCTGCTGCGCAGAAGAAGAAGAAGAAGAAGAAGAAGAACG / CGTTCTTCTTCTTCTTCTTCTTCTTCTTCTGC [mtJBA8.26.DLO annealed to fluorescein complement]
binding result ([1]; Raji cells, minimal association, label: fluorescein on complementary strand, folded or branched DNA): no binding

GCAGCAGCGTAAAGGAGGTGTTTGTGCGGTGTGGAGTGCGCGTGCTGCTGC [tJBA8.1 GGAGG]
binding result [1, 5]: no binding

GCAGCAGCGTAAAGGGGGTGTTTGTGCGGTGTGGAGTGCGCGCGCTGCTGCGCAGAAGAAGAAGAAGAAGAAGAAGAAGAACG / CGTTCTTCTTCTTCTTCTTCTTCTTCTTCTGC [tJBA8.26.DLO annealed to fluorescein complement]
binding result ([1]; Raji cells, binding at 4 C and internalization at 37 C, label: fluorescein on complementary strand, folded or branched DNA): binds
